# Assay results as given in the supplement of paper PMC11732987, “Enantioselective OTUD7B fragment discovery through chemoproteomics screening and high-throughput optimisation” (Communications Chemistry, 2025).
# Sequences of proteins named here, by UniProt entry; tags and fusion partners are left off. A change or cut given only in a name is not applied to a line headed by its entry. Residues count along the entry.
# UniProt Q9Y4F3: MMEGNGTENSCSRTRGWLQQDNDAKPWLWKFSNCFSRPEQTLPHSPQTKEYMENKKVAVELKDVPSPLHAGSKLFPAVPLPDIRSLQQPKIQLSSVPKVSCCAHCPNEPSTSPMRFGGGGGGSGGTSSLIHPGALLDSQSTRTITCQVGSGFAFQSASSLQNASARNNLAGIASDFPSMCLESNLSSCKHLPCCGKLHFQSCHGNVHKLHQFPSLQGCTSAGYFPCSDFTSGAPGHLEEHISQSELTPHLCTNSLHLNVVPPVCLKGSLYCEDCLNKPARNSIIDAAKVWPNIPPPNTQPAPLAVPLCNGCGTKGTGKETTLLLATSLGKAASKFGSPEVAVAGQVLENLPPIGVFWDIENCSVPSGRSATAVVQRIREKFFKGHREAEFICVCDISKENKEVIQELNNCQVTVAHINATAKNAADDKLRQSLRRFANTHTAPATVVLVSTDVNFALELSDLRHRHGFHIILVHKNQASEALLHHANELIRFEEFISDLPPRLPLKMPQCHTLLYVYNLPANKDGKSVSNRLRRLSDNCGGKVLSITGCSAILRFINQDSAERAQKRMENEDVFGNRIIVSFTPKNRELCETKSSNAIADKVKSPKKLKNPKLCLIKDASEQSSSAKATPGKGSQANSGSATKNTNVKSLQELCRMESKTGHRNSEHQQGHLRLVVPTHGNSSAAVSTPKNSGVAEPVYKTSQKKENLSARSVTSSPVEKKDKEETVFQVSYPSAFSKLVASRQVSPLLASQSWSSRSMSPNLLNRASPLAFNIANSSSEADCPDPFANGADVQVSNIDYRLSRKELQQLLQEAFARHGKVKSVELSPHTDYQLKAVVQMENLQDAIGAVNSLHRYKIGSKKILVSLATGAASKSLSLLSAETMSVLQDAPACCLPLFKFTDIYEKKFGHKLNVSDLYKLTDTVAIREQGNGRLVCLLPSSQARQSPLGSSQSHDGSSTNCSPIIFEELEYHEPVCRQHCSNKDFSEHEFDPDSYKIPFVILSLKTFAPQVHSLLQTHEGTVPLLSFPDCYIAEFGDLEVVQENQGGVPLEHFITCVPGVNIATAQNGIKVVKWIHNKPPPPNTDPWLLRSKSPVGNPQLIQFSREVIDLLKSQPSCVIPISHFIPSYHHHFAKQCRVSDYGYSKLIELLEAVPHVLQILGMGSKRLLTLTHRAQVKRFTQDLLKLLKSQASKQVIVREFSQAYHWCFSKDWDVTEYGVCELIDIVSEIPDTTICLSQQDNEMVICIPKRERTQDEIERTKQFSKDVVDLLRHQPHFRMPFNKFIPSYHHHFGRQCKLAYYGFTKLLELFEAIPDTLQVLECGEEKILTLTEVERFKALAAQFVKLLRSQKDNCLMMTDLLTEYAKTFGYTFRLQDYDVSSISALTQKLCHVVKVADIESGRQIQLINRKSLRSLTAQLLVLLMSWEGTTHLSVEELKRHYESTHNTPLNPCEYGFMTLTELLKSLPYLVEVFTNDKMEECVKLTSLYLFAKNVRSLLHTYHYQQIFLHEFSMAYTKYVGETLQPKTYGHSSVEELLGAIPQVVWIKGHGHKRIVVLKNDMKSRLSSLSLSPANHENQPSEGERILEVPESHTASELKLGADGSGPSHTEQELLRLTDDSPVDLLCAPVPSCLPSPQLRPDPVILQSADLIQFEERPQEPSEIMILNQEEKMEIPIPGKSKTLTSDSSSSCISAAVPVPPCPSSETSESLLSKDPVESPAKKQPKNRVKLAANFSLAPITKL
# UniProt Q9NS73: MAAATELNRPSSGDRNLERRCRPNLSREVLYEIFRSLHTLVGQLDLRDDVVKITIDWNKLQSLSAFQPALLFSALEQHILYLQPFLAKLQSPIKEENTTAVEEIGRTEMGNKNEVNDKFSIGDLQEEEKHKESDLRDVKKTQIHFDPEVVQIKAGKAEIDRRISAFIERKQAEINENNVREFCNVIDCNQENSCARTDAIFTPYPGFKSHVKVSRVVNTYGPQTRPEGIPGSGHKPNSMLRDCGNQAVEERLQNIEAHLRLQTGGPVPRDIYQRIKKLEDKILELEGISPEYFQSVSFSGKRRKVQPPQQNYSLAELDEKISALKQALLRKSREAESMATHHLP
# UniProt O14733, 113-136: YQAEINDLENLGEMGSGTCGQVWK
# UniProt Q9Y6D9: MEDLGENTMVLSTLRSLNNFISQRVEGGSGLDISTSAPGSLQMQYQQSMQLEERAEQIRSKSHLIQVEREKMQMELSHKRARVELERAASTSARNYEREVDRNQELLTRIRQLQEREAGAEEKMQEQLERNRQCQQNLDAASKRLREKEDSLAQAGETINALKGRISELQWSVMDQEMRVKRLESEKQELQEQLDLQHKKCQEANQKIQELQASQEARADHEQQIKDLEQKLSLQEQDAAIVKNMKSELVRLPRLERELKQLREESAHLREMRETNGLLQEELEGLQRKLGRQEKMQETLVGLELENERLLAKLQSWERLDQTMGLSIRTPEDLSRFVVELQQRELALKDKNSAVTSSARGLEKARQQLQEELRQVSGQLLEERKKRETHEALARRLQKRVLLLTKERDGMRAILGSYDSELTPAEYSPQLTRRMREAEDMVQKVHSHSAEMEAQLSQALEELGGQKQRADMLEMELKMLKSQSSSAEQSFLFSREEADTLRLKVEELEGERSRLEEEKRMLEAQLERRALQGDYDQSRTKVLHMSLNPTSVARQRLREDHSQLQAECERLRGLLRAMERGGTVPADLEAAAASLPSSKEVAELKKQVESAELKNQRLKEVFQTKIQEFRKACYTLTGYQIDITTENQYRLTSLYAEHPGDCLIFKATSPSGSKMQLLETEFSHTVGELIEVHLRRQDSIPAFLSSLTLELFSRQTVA
# UniProt Q9NQ29: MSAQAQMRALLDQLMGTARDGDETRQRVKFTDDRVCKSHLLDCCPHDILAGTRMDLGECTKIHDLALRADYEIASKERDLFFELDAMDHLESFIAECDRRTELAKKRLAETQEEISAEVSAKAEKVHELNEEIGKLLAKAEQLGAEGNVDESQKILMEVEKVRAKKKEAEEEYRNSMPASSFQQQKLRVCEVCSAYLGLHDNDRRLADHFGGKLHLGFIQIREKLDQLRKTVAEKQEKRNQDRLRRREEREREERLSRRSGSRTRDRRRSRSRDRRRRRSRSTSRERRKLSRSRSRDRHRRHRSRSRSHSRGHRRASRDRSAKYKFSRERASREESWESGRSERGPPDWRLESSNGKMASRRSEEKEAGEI
# UniProt Q9Y2U5: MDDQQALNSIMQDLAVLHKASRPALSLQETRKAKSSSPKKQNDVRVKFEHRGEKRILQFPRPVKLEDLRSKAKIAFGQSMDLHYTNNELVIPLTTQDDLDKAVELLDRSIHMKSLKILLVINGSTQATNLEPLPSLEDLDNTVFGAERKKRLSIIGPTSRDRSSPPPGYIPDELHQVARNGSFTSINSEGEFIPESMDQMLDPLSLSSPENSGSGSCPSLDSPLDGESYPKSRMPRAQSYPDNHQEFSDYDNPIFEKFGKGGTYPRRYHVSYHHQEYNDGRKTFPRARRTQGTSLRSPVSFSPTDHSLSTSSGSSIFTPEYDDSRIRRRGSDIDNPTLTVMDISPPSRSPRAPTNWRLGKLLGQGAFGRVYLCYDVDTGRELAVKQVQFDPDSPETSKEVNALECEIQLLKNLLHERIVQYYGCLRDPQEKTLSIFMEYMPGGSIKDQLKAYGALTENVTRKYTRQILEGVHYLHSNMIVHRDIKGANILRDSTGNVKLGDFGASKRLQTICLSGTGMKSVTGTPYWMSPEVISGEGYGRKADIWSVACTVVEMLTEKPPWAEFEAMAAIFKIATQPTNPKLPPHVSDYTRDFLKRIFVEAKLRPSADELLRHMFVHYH
# UniProt Q15345: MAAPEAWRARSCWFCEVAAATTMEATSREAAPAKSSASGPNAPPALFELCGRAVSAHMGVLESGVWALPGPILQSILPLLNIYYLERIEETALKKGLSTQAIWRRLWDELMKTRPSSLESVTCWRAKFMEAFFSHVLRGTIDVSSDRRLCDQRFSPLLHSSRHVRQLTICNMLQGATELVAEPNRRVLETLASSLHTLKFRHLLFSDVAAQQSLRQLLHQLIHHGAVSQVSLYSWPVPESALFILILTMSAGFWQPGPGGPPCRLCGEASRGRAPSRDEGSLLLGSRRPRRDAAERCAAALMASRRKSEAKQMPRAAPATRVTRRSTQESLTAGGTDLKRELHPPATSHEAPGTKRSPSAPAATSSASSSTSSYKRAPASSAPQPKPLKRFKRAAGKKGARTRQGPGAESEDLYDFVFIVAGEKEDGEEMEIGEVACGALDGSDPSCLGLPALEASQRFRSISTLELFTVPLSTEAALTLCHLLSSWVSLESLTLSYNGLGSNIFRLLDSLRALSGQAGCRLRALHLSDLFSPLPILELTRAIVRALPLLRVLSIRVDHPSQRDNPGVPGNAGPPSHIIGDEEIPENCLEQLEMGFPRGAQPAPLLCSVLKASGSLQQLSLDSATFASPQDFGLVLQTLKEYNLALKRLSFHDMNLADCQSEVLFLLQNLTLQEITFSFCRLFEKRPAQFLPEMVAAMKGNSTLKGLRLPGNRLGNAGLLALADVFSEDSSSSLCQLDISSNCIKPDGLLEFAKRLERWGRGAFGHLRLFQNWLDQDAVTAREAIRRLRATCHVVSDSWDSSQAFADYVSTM
# UniProt Q9Y546: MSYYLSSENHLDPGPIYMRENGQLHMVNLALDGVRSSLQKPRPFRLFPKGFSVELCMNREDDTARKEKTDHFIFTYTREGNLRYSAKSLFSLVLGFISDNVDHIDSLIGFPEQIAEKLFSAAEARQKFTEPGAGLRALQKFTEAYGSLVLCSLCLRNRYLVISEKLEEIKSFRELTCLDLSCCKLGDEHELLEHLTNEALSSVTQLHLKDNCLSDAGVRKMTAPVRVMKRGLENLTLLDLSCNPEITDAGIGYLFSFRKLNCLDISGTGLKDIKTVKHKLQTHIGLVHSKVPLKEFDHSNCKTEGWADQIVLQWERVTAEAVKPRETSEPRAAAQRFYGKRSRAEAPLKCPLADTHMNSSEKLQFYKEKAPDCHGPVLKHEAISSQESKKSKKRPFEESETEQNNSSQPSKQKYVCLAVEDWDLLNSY
# UniProt Q96L34: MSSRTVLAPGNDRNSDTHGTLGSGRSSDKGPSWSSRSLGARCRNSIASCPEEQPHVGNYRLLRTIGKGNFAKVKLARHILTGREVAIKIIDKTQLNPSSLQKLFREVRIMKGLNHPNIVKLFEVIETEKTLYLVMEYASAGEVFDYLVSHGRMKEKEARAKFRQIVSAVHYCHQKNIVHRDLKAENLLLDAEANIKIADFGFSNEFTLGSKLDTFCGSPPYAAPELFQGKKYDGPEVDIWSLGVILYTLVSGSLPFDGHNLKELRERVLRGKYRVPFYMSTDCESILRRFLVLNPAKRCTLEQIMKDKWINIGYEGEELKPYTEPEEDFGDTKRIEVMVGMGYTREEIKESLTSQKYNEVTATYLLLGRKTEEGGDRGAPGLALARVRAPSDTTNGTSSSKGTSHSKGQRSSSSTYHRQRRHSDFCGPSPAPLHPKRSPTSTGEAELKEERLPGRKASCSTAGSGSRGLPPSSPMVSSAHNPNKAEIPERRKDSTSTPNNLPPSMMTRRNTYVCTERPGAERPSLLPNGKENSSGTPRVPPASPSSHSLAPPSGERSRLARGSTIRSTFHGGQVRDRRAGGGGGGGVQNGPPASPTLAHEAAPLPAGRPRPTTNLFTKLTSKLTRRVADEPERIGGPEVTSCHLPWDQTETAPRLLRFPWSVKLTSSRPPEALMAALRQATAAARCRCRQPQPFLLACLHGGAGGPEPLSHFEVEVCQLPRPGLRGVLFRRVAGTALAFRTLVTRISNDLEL
# UniProt O43318: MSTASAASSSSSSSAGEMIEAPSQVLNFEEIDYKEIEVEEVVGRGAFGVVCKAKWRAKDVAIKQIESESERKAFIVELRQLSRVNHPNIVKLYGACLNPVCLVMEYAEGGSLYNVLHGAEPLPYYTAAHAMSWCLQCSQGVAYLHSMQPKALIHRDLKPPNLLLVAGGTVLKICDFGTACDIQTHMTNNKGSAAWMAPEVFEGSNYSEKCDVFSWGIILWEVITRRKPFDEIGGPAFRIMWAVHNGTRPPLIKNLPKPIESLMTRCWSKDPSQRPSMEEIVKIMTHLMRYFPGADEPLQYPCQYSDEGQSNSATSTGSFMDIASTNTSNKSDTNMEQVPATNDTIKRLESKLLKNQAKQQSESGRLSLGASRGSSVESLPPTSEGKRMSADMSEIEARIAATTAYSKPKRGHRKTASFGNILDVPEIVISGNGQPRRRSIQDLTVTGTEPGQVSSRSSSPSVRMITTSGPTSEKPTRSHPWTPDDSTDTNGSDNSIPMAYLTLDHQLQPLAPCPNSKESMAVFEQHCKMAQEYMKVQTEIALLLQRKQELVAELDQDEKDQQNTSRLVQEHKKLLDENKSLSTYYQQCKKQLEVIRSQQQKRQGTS
# The list shows a part of the results. The data scatter; read single values as rough.
# Compound: ClCC(=O)N[C@H]1CCCc2ccccc12
# Assay: log2 mean competition ratio of IA-DTB cysteine labelling (DMSO/compound) (log2 ratio); higher = stronger cysteine engagement by compound
# Conditions: 50 µM; treatment time: 4 h; cell line lysate: HEK293T
# Method: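 IA-DTB competitive cysteine chemoproteomics in HEK293T RIPA lysate. Lysates were treated with compound 29 or 30 at 50 or 200 µM for 4 h, then IA-DTB (500 µM, 1 h), trypsin-digested, NeutrAvidin-enriched and analysed by diaPASEF. Competition ratio = intensity DMSO / intensity compound (n=4 treated, n=64 DMSO); binding: mean log2 CR ≥ 1 and p ≤ 0.05 plus QC filters. Target is the cysteine site.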
row,Target,log2 mean competition ratio
1,MARF1 C654 (UniProt Q9Y4F3),0.0118
2,MBIP C243 (UniProt Q9NS73),-0.179
3,MAP2K7 C131 (UniProt O14733),0.113
4,MCM3AP C1285 (UniProt O60318),0.31
5,MAD1L1 C134 (UniProt Q9Y6D9),-0.317
6,MAP7D3 C521 (UniProt Q8IWC1),-0.0655
7,LUC7L C59 (UniProt Q9NQ29),-0.0251
8,MAF C46,-0.0664
9,MBNL3 C180,0.0322
10,MAPK14 C162 (UniProt Q16539),-0.124
11,MAP3K4 C1484 (UniProt Q9Y6R4),0.224
12,MAP3K2 C405 (UniProt Q9Y2U5),-0.481
13,LRRC41 C266 (UniProt Q15345),-0.0647
14,LRRC42 C373 (UniProt Q9Y546),0.348
15,MAGI3 C1266 (UniProt Q5TCQ9),0.47
16,MARK4 C49 (UniProt Q96L34),-0.4
17,MCM4 C509 (UniProt P33991),-0.327
18,MAP3K7 C588 (UniProt O43318),-0.298
19,MAP9 C239,-0.0704
20,MACF1 C2895,-0.206

# Same assay, conditions: 200 µM; treatment time: 4 h; cell line lysate: HEK293T
row,Target,log2 mean competition ratio
1,MARF1 C654 (UniProt Q9Y4F3),0.263
2,MBIP C243 (UniProt Q9NS73),0.391
3,MAP2K7 C131 (UniProt O14733),-0.155
4,MCM3AP C1285 (UniProt O60318),0.0501
5,MAD1L1 C134 (UniProt Q9Y6D9),-0.124
6,MAP7D3 C521 (UniProt Q8IWC1),-0.00495
7,LUC7L C59 (UniProt Q9NQ29),0.096
8,MAF C46,0.15
9,MBNL3 C180,0.478
10,MAPK14 C162 (UniProt Q16539),-0.126
11,MAP3K4 C1484 (UniProt Q9Y6R4),-0.103
12,MAP3K2 C405 (UniProt Q9Y2U5),-0.306
13,LRRC41 C266 (UniProt Q15345),0.131
14,LRRC42 C373 (UniProt Q9Y546),-0.262
15,MAGI3 C1266 (UniProt Q5TCQ9),0.203
16,MARK4 C49 (UniProt Q96L34),0.0737
17,MCM4 C509 (UniProt P33991),-0.072
18,MAP3K7 C588 (UniProt O43318),0.143
19,MAP9 C239,-0.148
20,MACF1 C2895,0.0591
